Test results taken from patent publication US20200331866A1, “BENZAMIDE COMPOUNDS AND THEIR USE AS HERBICIDES” (BASF SE, priority 2018, published 2020).
Some of these results come from one statement about several compounds together.

Columns and labels:
Assay type in all cases: in vivo
Conditions in all cases: application rate 250 g/ha, scale 0 to 100 (100 = complete destruction, 0 = no damage)
[1] = test system: ALOMY (Alopecurus myosuroiedes); experiment: Greenhouse post-emergence herbicidal test, test series 1, ALOMY
[2] = test system: ECHCG (Echinocloa crus-galli); experiment: Greenhouse post-emergence herbicidal test, test series 1, ECHCG
[3] = test system: SETFA (Setaria faberi); experiment: Greenhouse post-emergence herbicidal test, test series 1, SETFA

For CCN(CC(F)F)C(=S)Nc1c(Br)cc(F)c(C(=O)Nc2nnnn2C)c1C [Example 16], the “control of ALOMY” value [1] was > 85%, the “control of ECHCG” value [2] was > 85% and the “control of SETFA” value [3] was > 85%.
With Cc1c(C(=O)Nc2nnnn2C)ccc(Cl)c1NC(=S)N(C)CC(F)(F)F [Example 25] the “control of ALOMY” value [1] was > 85%, the “control of ECHCG” value [2] was > 85% and the “control of SETFA” value [3] was > 85%.
In the case of CCn1nnnc1NC(=O)c1c(F)cc(Br)c(NC(=S)N(C2CC2)C2CC2)c1C [Example 18], the “control of ALOMY” value [1] is reported as > 85%, the “control of ECHCG” value [2] is reported as > 85% and the “control of SETFA” value [3] is reported as > 85%.
COc1c(NC(=S)N(c2ccccc2)C(C)C)c(Br)cc(F)c1C(=O)Nc1nnnn1C [Example 13] was tested, and the “control of ECHCG” value [2] was > 85%.
With CCN(CC(F)F)C(=S)Nc1c(Cl)ccc(C(=O)Nc2nnnn2C)c1C [Example 28] the “control of ALOMY” value [1] was > 85%, the “control of ECHCG” value [2] was > 85% and the “control of SETFA” value [3] was > 85%.
For CCN(CC)C(=S)Nc1c(Br)cc(F)c(C(=O)Nc2nnnn2CC)c1C [Example 21], the “control of ALOMY” value [1] was > 85% and the “control of ECHCG” value [2] was > 85%.
With CCN(CC(F)(F)F)C(=S)Nc1c(Br)cc(F)c(C(=O)Nc2nnnn2C)c1C [Example 15] the “control of ECHCG” value [2] was > 85%.
CN(CC(F)F)C(=S)Nc1c(Cl)ccc(C(=O)Nc2nnnn2C)c1Cl [Example 31] was tested, and the “control of ALOMY” value [1] was > 85%, the “control of ECHCG” value [2] was > 85% and the “control of SETFA” value [3] was > 85%.
CCN(C(=S)Nc1c(Br)cc(F)c(C(=O)Nc2nnnn2CC)c1C)c1ccccc1 [Example 23] was tested, and the “control of ECHCG” value [2] was > 85%.
Cc1c(NC(=S)N2CCOCC2)c(Br)cc(F)c1C(=O)Nc1nnnn1C [Example 4] was tested, and the “control of ALOMY” value [1] was > 85%, the “control of ECHCG” value [2] was > 85% and the “control of SETFA” value [3] was > 85%.
For Cc1c(C(=O)Nc2nnnn2C)ccc(Cl)c1NC(=S)N(C)CC(F)F [Example 27], the “control of ALOMY” value [1] was > 85%, the “control of ECHCG” value [2] was > 85% and the “control of SETFA” value [3] was > 85%.
For Cc1cccc(C)c1NC(=S)Nc1c(Br)cc(F)c(C(=O)Nc2nnnn2C)c1C [Example 9], the “control of ECHCG” value [2] was > 85% and the “control of SETFA” value [3] was > 85%.
With CN(CC(F)(F)F)C(=S)Nc1c(Cl)ccc(C(=O)Nc2nnnn2C)c1Cl [Example 32] the “control of ALOMY” value [1] was > 85%, the “control of ECHCG” value [2] was > 85% and the “control of SETFA” value [3] was > 85%.
For CCCN(C)C(=S)Nc1c(Br)cc(F)c(C(=O)Nc2nnnn2C)c1C [Example 7], the “control of ALOMY” value [1] was > 85%, the “control of ECHCG” value [2] was > 85% and the “control of SETFA” value [3] was > 85%.
For Cc1c(NC(=S)N(C)CC(F)(F)F)c(Br)cc(F)c1C(=O)Nc1nnnn1C [Example 14], the “control of ALOMY” value [1] was > 85%, the “control of ECHCG” value [2] was > 85% and the “control of SETFA” value [3] was > 85%.
For CCN(C)C(=S)Nc1c(Br)cc(F)c(C(=O)Nc2nnnn2CC)c1C [Example 20], the “control of ECHCG” value [2] was > 85%.
In the case of Cc1c(C(=O)Nc2nnnn2C)ccc(Br)c1NC(=S)N(C)CC(F)(F)F [Example 29], the “control of ALOMY” value [1] is reported as > 85%, the “control of ECHCG” value [2] is reported as > 85% and the “control of SETFA” value [3] is reported as > 85%.
For Cc1c(NC(=S)N(C)C(C)C)c(Br)cc(F)c1C(=O)Nc1nnnn1C [Example 6], the “control of ALOMY” value [1] was > 85% and the “control of ECHCG” value [2] was > 85%.
With Cc1c(NC(=S)NC(C)(C)C)c(Br)cc(F)c1C(=O)Nc1nnnn1C [Example 10] the “control of ECHCG” value [2] was > 85% and the “control of SETFA” value [3] was > 85%.
CCN(C(=S)Nc1c(Br)cc(F)c(C(=O)Nc2nnnn2C)c1C)C1CC1 [Example 8] was tested, and the “control of ALOMY” value [1] was > 85%, the “control of ECHCG” value [2] was > 85% and the “control of SETFA” value [3] was > 85%.
In the case of Cc1c(NC(=S)N(C2CC2)C2CC2)c(Br)cc(F)c1C(=O)Nc1nnnn1C [Example 5], the “control of ALOMY” value [1] is reported as > 85%, the “control of ECHCG” value [2] is reported as > 85% and the “control of SETFA” value [3] is reported as > 85%.
In the case of CCN(C(=S)Nc1c(Br)cc(F)c(C(=O)Nc2nnnn2CC)c1C)C1CC1 [Example 19], the “control of ALOMY” value [1] is reported as > 85% and the “control of ECHCG” value [2] is reported as > 85%.
With Cc1c(NC(=S)N(C)CC(F)F)c(Br)cc(F)c1C(=O)Nc1nnnn1C [Example 17] the “control of ALOMY” value [1] was > 85%, the “control of ECHCG” value [2] was > 85% and the “control of SETFA” value [3] was > 85%.
CCN(CC(F)(F)F)C(=S)Nc1c(Cl)ccc(C(=O)Nc2nnnn2C)c1C [Example 26] was tested, and the “control of ALOMY” value [1] was > 85%, the “control of ECHCG” value [2] was > 85% and the “control of SETFA” value [3] was > 85%.
With Cc1c(NC(=S)N(C)c2ccccc2)c(Br)cc(F)c1C(=O)Nc1nnnn1C [Example 3] the “control of ECHCG” value [2] was > 85%.
For CCN(CC(F)(F)F)C(=S)Nc1c(Br)ccc(C(=O)Nc2nnnn2C)c1C [Example 30], the “control of ALOMY” value [1] was > 85%, the “control of ECHCG” value [2] was > 85% and the “control of SETFA” value [3] was > 85%.
CCn1nnnc1NC(=O)c1c(F)cc(Br)c(NC(=S)N(C)c2ccccc2)c1C [Example 22] was tested, and the “control of ECHCG” value [2] was > 85%.
CCn1nnnc1NC(=O)c1c(F)cc(Br)c(NC(=S)N(c2ccccc2)C(C)C)c1C [Example 24] was tested, and the “control of ECHCG” value [2] was > 85%.
With CCN(C)C(=S)Nc1c(Br)cc(F)c(C(=O)Nc2nnnn2C)c1C [Example 2] the “control of ALOMY” value [1] was > 85%, the “control of ECHCG” value [2] was > 85% and the “control of SETFA” value [3] was > 85%.
